Reference: patent US3968207A, “Method of controlling fleas and ticks on cats and dogs” (priority 1975, dated 1976)
Where “and” joins values, the source holds several entries; their conditions need not be identical. Equal values may be shown once. This continues a long series; more values of the same kind are listed elsewhere.

Tested on: Ctenocephalides felis
Assay: 2% powder for control of flea infestations on dogs
Type: in vivo
Settings: 20 mg/kg
Method: An experiment was carried out to determine the activity of O,O,O',O'-tetramethyl O,O'-thiodi-p-phenylene phosphorothioate 2% powder for the control of Ctenocephalides felis infestations on dogs. A group of 40 dogs of mixed breeds were obtained from a licensed laboratory animal dealer and housed in individual cages. The 2% powder was formulated from a 25% dust concentrate containing […] O,O,O',O'-tetramethyl O,O'-thiodi-p-phenylene phosphorothioate, 24% celite 209 and 50% acidic kaolin. Talc was used to dilute the concentrate to 2% active ingredient. Each dog was infested with 100 1 day old adult C. felis 72 hours prior to treatment and reinfested on a weekly basis for 6 weeks beginning 7 days after treatment. Each dog was treated with 20 mg. actual drug per kg. body weight formulated as a 2% powder. Five or more dogs were treated with a blank powder and used as infested controls. Table XV summarizes average dead fleas in treated versus average dead fleas in control.

SMILES: COP(=S)(OC)Oc1ccc(Sc2ccc(OP(=S)(OC)OC)cc2)cc1 [O,O,O',O'-tetramethyl O,O'-thiodi-p-phenylene phosphorothioate]
- No. of Dead Fleas Recovered in 48 Hrs. (Trial 1, individual dogs, week 0): 48 and 29 and 33
- No. of Dead Fleas Recovered in 48 Hrs. (Trial 1, individual dogs, week 1): 19 and 60 and 46
- No. of Dead Fleas Recovered in 48 Hrs. (Trial 1, individual dogs, week 2): 37 and 30 and 25 and 33
- No. of Dead Fleas Recovered in 48 Hrs. (Trial 1, individual dogs, week 3): 39 and 50 and 38
- No. of Dead Fleas Recovered in 48 Hrs. (Trial 1, individual dogs, week 4): 28 and 32 and 13 and 37
- No. of Dead Fleas Recovered in 48 Hrs. (Trial 1, individual dogs, week 5): 45 and 19 and 57 and 33 and 10
- No. of Dead Fleas Recovered in 48 Hrs. (Trial 1, individual dogs, week 6): 30 and 12
- No. of Dead Fleas Recovered in 48 Hrs. (Trial 2, individual dogs, week 0): 72 and 39 and 54 and 55 and 49 and 78 and 57 and 38 and 42 and 59 and 30 and 48 and 20 and 31 and 25 and 68 and 35 and 10
- No. of Dead Fleas Recovered in 48 Hrs. (Trial 2, individual dogs, week 1): 48 and 44 and 38 and 46 and 49 and 28 and 74 and 32 and 20 and 55 and 33 and 59 and 37 and 39 and 47
- No. of Dead Fleas Recovered in 48 Hrs. (Trial 2, individual dogs, week 2): 34 and 36 and 41 and 43 and 49 and 62 and 39 and 30 and 31 and 75 and 35 and 73 and 55 and 59 and 37 and 60
- No. of Dead Fleas Recovered in 48 Hrs. (Trial 2, individual dogs, week 3): 45 and 41 and 38 and 48 and 47 and 42 and 27 and 35 and 44 and 80 and 28 and 50 and 72 and 37 and 55
- No. of Dead Fleas Recovered in 48 Hrs. (Trial 2, individual dogs, week 4): 35 and 39 and 51 and 34 and 23 and 29 and 50 and 36 and 26 and 7 and 45 and 55 and 42 and 32 and 75 and 111 and 73
- No. of Dead Fleas Recovered in 48 Hrs. (Trial 2, individual dogs, week 5): 27 and 21 and 45 and 4 and 2 and 28 and 30 and 47 and 11 and 34 and 25 and 52 and 48 and 29 and 50 and 40 and 36
- No. of Dead Fleas Recovered in 48 Hrs. (Trial 2, individual dogs, week 6): 24 and 10 and 16 and 4 and 3 and 20 and 53 and 50 and 7 and 44 and 8 and 18 and 49 and 35 and 27 and 41
